Results are given in words; binding and its absence hold for the method and conditions named. In cells and extracts the contact can be indirect. Here binding means that the protein was enriched with, or labelled near, the bait; the list need not be complete.

Results on four molecules are retold here after PMC12604043.

First the molecules themselves.
B1: treacle protein (protein, UniProt Q13428 1-1488)
chain: MAEARKRRELLPLIYHHLLRAGYVRAAREVKEQSGQKCFLAQPVTLLDIYTHWQQTSELGRKRKAEEDAALQAKKTRVSDPISTSESSEEEEEAEAETAKATPRLASTNSSVLGADLPSSMKEKAKAETEKAGKTGNSMPHPATGKTVANLLSGKSPRKSAEPSANTTLVSETEEEGSVPAFGAAAKPGMVSAGQADSSSEDTSSSSDETDVEGKPSVKPAQVKASSVSTKESPARKAAPAPGKVGDVTPQVKGGALPPAKRAKKPEEESESSEEGSESEEEAPAGTRSQVKASEKILQVRAASAPAKGTPGKGATPAPPGKAGAVASQTKAGKPEEDSESSSEESSDSEEETPAAKALLQAKASGKTSQVGAASAPAKESPRKGAAPAPPGKTGPAVAKAQAGKREEDSQSSSEESDSEEEAPAQAKPSGKAPQVRAASAPAKESPRKGAAPAPPRKTGPAAAQVQVGKQEEDSRSSSEESDSDREALAAMNAAQVKPLGKSPQVKPASTMGMGPLGKGAGPVPPGKVGPATPSAQVGKWEEDSESSSEESSDSSDGEVPTAVAPAQEKSLGNILQAKPTSSPAKGPPQKAGPVAVQVKAEKPMDNSESSEESSDSADSEEAPAAMTAAQAKPALKIPQTKACPKKTNTTASAKVAPVRVGTQAPRKAGTATSPAGSSPAVAGGTQRPAEDSSSSEESDSEEEKTGLAVTVGQAKSVGKGLQVKAASVPVKGSLGQGTAPVLPGKTGPTVTQVKAEKQEDSESSEEESDSEEAAASPAQVKTSVKKTQAKANPAAARAPSAKGTISAPGKVVTAAAQAKQRSPSKVKPPVRNPQNSTVLARGPASVPSVGKAVATAAQAQTGPEEDSGSSEEESDSEEEAETLAQVKPSGKTHQIRAALAPAKESPRKGAAPTPPGKTGPSAAQAGKQDDSGSSSEESDSDGEAPAAVTSAQVIKPPLIFVDPNRSPAGPAATPAQAQAASTPRKARASESTARSSSSESEDEDVIPATQCLTPGIRTNVVTMPTAHPRIAPKASMAGASSSKESSRISDGKKQEGPATQVSKKNPASLPLTQAALKVLAQKASEAQPPVARTQPSSGVDSAVGTLPATSPQSTSVQAKGTNKLRKPKLPEVQQATKAPESSDDSEDSSDSSSGSEEDGEGPQGAKSAHTLGPTPSRTETLVEETAAESSEDDVVAPSQSLLSGYMTPGLTPANSQASKATPKLDSSPSVSSTLAAKDDPDGKQEAKPQQAAGMLSPKTGGKEAASGTTPQKSRKPKKGAGNPQASTLALQSNITQCLLGQPWPLNEAQVQASVVKVLTELLEQERKKVVDTTKESSRKGWESRKRKLSGDQPAARTPRSKKKKKLGAGEGGEASVSPEKTSTTSKGKAKRDKASGDVKEKKGKGSLGSQGAKDEPEEELQKGMGTVEGGDQSNPKSKKEKKKSDKRKKDKEKKEKKKKAKKASTKDSESPSQKKKKKKKKTAEQTV
B2: tRNA-splicing ligase Rtcb homologue (endogenous, human) (protein, UniProt Q9Y3I0 1-505)
chain: MSRSYNDELQFLEKINKNCWRIKKGFVPNMQVEGVFYVNDALEKLMFEELRNACRGGGVGGFLPAMKQIGNVAALPGIVHRSIGLPDVHSGYGFAIGNMAAFDMNDPEAVVSPGGVGFDINCGVRLLRTNLDESDVQPVKEQLAQAMFDHIPVGVGSKGVIPMNAKDLEEALEMGVDWSLREGYAWAEDKEHCEEYGRMLQADPNKVSARAKKRGLPQLGTLGAGNHYAEIQVVDEIFNEYAAKKMGIDHKGQVCVMIHSGSRGLGHQVATDALVAMEKAMKRDKIIVNDRQLACARIASPEGQDYLKGMAAAGNYAWVNRSSMTFLTRQAFAKVFNTTPDDLDLHVIYDVSHNIAKVEQHVVDGKERTLLVHRKGSTRAFPPHHPLIAVDYQLTGQPVLIGGTMGTCSYVLTGTEQGMTETFGTTCHGAGRALSRAKSRRNLDFQDVLDKLADMGIAIRVASPKLVMEEAPESYKNVTDVVNTCHDAGISKKAIKLRPIAVIKG
B3: 5′-3′ exoribonuclease XRN2 (protein, UniProt Q9H0D6 1-950)
chain: MGVPAFFRWLSRKYPSIIVNCVEEKPKECNGVKIPVDASKPNPNDVEFDNLYLDMNGIIHPCTHPEDKPAPKNEDEMMVAIFEYIDRLFSIVRPRRLLYMAIDGVAPRAKMNQQRSRRFRASKEGMEAAVEKQRVREEILAKGGFLPPEEIKERFDSNCITPGTEFMDNLAKCLRYYIADRLNNDPGWKNLTVILSDASAPGEGEHKIMDYIRRQRAQPNHDPNTHHCLCGADADLIMLGLATHEPNFTIIREEFKPNKPKPCGLCNQFGHEVKDCEGLPREKKGKHDELADSLPCAEGEFIFLRLNVLREYLERELTMASLPFTFDVERSIDDWVFMCFFVGNDFLPHLPSLEIRENAIDRLVNIYKNVVHKTGGYLTESGYVNLQRVQMIMLAVGEVEDSIFKKRKDDEDSFRRRQKEKRKRMKRDQPAFTPSGILTPHALGSRNSPGSQVASNPRQAAYEMRMQNNSSPSISPNTSFTSDGSPSPLGGIKRKAEDSDSEPEPEDNVRLWEAGWKQRYYKNKFDVDAADEKFRRKVVQSYVEGLCWVLRYYYQGCASWKWYYPFHYAPFASDFEGIADMPSDFEKGTKPFKPLEQLMGVFPAASGNFLPPSWRKLMSDPDSSIIDFYPEDFAIDLNGKKYAWQGVALLPFVDERRLRAALEEVYPDLTPEETRRNSLGGDVLFVGKHHPLHDFILELYQTGSTEPVEVPPELCHGIQGKFSLDEEAILPDQIVCSPVPMLRDLTQNTVVSINFKDPQFAEDYIFKAVMLPGARKPAAVLKPSDWEKSSNGRQWKPQLGFNRDRRPVHLDQAAFRTLGHVMPRGSGTGIYSNAAPPPVTYQGNLYRPLLRGQAQIPKLMSNMRPQDSWRGPPPLFQQQRFDRGVGAEPLLPWNRMLQTQNAAFQPNQYQMLAGPGGYPPRRDDRGGRQGYPREGRKYPLPPPSGRYNWN
B4: Myb-binding protein 1A (endogenous, human) (protein, UniProt Q9BQG0 1-1328)
chain: MESRDPAQPMSPGEATQSGARPADRYGLLKHSREFLDFFWDIAKPEQETRLAATEKLLEYLRGRPKGSEMKYALKRLITGLGVGRETARPCYSLALAQLLQSFEDLPLCSILQQIQEKYDLHQVKKAMLRPALFANLFGVLALFQSGRLVKDQEALMKSVKLLQALAQYQNHLQEQPRKALVDILSEVSKATLQEILPEVLKADLNIILSSPEQLELFLLAQQKVPSKLKKLVGSVNLFSDENVPRLVNVLKMAASSVKKDRKLPAIALDLLRLALKEDKFPRFWKEVVEQGLLKMQFWPASYLCFRLLGAALPLLTKEQLHLVMQGDVIRHYGEHVCTAKLPKQFKFAPEMDDYVGTFLEGCQDDPERQLAVLVAFSSVTNQGLPVTPTFWRVVRFLSPPALQGYVAWLRAMFLQPDLDSLVDFSTNNQKKAQDSSLHMPERAVFRLRKWIIFRLVSIVDSLHLEMEEALTEQVARFCLFHSFFVTKKPTSQIPETKHPFSFPLENQAREAVSSAFFSLLQTLSTQFKQAPGQTQGGQPWTYHLVQFADLLLNHSHNVTTVTPFTAQQRQAWDRMLQTLKELEAHSAEARAAAFQHLLLLVGIHLLKSPAESCDLLGDIQTCIRKSLGEKPRRSRTKTIDPQEPPWVEVLVEILLALLAQPSHLMRQVARSVFGHICSHLTPRALQLILDVLNPETSEDENDRVVVTDDSDERRLKGAEDKSEEGEDNRSSESEEESEGEESEEEERDGDVDQGFREQLMTVLQAGKALGGEDSENEEELGDEAMMALDQSLASLFAEQKLRIQARRDEKNKLQKEKALRRDFQIRVLDLVEVLVTKQPENALVLELLEPLLSIIRRSLRSSSSKQEQDLLHKTARIFTHHLCRARRYCHDLGERAGALHAQVERLVQQAGRQPDSPTALYHFNASLYLLRVLKGNTAEGCVHETQEKQKAGTDPSHMPTGPQAASCLDLNLVTRVYSTALSSFLTKRNSPLTVPMFLSLFSRHPVLCQSLLPILVQHITGPVRPRHQACLLLQKTLSMREVRSCFEDPEWKQLMGQVLAKVTENLRVLGEAQTKAQHQQALSSLELLNVLFRTCKHEKLTLDLTVLLGVLQGQQQSLQQGAHSTGSSRLHDLYWQAMKTLGVQRPKLEKKDAKEIPSATQSPISKKRKKKGFLPETKKRKKRKSEDGTPAEDGTPAATGGSQPPSMGRKKRNRTKAKVPAQANGTPTTKSPAPGAPTRSPSTPAKSPKLQKKNQKPSQVNGAPGSPTEPAGQKQHQKALPKKGVLGKSPLSALARKKARLSLVIRSPSLLQSGAKKKAQVRKAGKP

The target in this test is EGFP-tagged PRRSV nucleocapsid (N) protein (PRRSV (type 2, strain 01NP1)). As to the kind of experiment: affinity purification with mass spectrometry; EGFP-N (control: EGFP) overexpressed in HEK293T, captured from lysate on GFP-trap agarose beads; lysis and wash buffer 50 mM HEPES pH 7.4, 150 mM NaCl, 1 mM EDTA, 10% glycerol, 1% Triton X-100; 2 h at 4 °C, 7 washes; label-free LC-MS/MS, three biological replicates; hits: mean enrichment ratio >= 8, p <= 0.02.
Turning to B1, the binding result is “binds”. As to B2, the binding result was “binds”.

For B3, the binding result was “binds”. Consider B4, for which the binding entry is listed as “binds”.
